Values quoted from earlier work as cited in article PMC4653337 (Pharmacognosy Magazine, 2015).
Structures can show the parent of a compound that is named as a salt.

Test system: A549 cells
Settings: A549, SRB assay; ref 18 (Pinmai et al.); cited from earlier work

## COc1cccc2c1C(=O)c1c(O)c3c(c(O)c1C2=O)C[C@@](O)(C(=O)CO)C[C@@H]3O[C@H]1C[C@H](N)[C@H](O)[C@H](C)O1 [Doxorubicin, Doxorubicin hydrochloride, reference compound]
  IC50: 0.17 ± 0.006 µg/mL
